Assay [1] deals with T1, GST-GL3 (GLABRA3) (Arabidopsis thaliana) (UniProt Q9FN69).
T1 sequence: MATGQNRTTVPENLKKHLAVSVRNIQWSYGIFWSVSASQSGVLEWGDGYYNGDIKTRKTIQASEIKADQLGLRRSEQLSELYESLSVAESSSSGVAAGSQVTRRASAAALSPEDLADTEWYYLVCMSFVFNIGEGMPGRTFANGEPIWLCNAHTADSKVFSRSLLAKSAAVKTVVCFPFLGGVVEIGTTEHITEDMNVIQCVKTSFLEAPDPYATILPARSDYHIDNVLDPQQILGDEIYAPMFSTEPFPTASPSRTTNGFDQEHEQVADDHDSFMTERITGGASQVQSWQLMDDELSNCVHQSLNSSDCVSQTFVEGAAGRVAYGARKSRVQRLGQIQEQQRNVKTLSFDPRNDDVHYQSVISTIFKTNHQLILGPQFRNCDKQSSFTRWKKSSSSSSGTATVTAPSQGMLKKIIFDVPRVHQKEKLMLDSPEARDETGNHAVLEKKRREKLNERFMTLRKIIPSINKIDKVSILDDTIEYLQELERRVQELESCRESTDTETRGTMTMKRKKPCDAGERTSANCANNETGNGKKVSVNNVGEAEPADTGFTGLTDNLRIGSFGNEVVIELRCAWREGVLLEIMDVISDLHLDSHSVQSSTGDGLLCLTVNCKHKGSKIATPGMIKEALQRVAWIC
Put plainly: pull-down; UMEPPI: 500 µL crude soluble fraction of the GL1 Hishot complex with 100 µL purified GST, GST-GL3 or GST-PAP1 (36.6 µM) and glutathione sepharose 4B, 4°C overnight, washed three times with PBS; co-precipitated GL1 detected through its mRNA by semi-qRT-PCR and qRT-PCR; only the target purified. On the technique in general: Real-time PCR tracks product formation cycle by cycle.

Assay [2] has as its target T2, GST-PAP1 (PRODUCTION OF ANTHOCYANIN PIGMENT 1) (Arabidopsis thaliana) (UniProt Q9FE25).
T2 sequence: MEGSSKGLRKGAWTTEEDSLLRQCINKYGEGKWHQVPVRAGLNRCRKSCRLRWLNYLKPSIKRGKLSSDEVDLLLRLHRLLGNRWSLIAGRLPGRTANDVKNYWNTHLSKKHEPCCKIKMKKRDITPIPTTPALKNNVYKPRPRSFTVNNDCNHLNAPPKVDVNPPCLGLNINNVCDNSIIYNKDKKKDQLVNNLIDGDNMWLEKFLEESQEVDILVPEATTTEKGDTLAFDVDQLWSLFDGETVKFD
The assay is described as above.

No constants are given. Whether binding was seen depends on the method and setting. In cells and extracts the contact can be indirect. Some results given as binding are weak or reduced against the parent protein; the word gives no strength. Where a sequence is shown, tags or fusion partners need not be part of it.

B1: GL1 Hishot complex (histidine-tagged GLABROUS1 associated with its own shot47-tagged mRNA) (protein, UniProt P27900 1-228)
chain: MRIRRRDEKENQEYKKGLWTVEEDNILMDYVLNHGTGQWNRIVRKTGLKRCGKSCRLRWMNYLSPNVNKGNFTEQEEDLIIRLHKLLGNRWSLIAKRVPGRTDNQVKNYWNTHLSKKLVGDYSSAVKTTGEDDDSPPSLFITAATPSSCHHQQENIYENIAKSFNGVVSASYEDKPKQELAQKDVLMATTNDPSHYYGNNALWVHDDDFELSSLVMMNFASGDVEYCL
With B1, the binding entry in assay [1] and in assay [2] was “binds” each time.

The record behind these values is paper PMC7520122.
